± gives the standard deviation of the averaged measurements. The list shows a part of the results.
Compound: Nc1nc2c(ncn2[C@@H]2O[C@H](COP(=O)(O)OP(=O)(O)OP(=O)(O)O)[C@@H](O)[C@H]2O)c(=O)[nH]1 [guanosine triphosphate]
Assay: NP40-soluble protein abundance relative to vehicle (solubility fold change) (ratio); higher = more soluble protein in presence of GTP
Experimental: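 Solubility proteome profiling in Jurkat crude lysate. Lysate was treated with Mg-GTP (0.1-10 mM) for 10 min at room temperature and 3 min at 37 °C, then solubilised with 0.8% NP40 and benzonase, followed by ultracentrifugation. Proteins were quantified by TMT10 LC-MS/MS; the value is the NP40-soluble abundance relative to the NP40-processed vehicle, from 3 independent experiments.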

By UniProt entry, the sequences of proteins in these tests, tags left out. Where a name states a change or a piece, a line headed by the entry shows the natural chain unless it says otherwise.
UniProt Q99797: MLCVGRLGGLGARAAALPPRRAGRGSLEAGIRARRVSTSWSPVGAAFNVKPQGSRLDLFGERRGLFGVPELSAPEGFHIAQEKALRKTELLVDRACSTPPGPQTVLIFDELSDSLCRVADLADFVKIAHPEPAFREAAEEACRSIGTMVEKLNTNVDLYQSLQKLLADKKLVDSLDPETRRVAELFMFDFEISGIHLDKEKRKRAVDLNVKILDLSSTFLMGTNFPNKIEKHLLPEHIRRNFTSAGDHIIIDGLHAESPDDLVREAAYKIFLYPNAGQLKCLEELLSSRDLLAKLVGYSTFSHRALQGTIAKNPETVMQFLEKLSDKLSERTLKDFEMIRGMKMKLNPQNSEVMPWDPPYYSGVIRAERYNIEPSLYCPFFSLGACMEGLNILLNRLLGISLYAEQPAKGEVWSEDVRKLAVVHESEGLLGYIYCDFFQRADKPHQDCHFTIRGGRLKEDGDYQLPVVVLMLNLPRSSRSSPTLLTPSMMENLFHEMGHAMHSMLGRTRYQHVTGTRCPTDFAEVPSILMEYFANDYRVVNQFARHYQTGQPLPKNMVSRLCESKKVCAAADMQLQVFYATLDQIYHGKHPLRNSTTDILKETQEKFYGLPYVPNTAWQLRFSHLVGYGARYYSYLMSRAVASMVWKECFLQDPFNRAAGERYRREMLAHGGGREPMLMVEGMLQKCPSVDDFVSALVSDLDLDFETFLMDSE
UniProt Q9BRZ2: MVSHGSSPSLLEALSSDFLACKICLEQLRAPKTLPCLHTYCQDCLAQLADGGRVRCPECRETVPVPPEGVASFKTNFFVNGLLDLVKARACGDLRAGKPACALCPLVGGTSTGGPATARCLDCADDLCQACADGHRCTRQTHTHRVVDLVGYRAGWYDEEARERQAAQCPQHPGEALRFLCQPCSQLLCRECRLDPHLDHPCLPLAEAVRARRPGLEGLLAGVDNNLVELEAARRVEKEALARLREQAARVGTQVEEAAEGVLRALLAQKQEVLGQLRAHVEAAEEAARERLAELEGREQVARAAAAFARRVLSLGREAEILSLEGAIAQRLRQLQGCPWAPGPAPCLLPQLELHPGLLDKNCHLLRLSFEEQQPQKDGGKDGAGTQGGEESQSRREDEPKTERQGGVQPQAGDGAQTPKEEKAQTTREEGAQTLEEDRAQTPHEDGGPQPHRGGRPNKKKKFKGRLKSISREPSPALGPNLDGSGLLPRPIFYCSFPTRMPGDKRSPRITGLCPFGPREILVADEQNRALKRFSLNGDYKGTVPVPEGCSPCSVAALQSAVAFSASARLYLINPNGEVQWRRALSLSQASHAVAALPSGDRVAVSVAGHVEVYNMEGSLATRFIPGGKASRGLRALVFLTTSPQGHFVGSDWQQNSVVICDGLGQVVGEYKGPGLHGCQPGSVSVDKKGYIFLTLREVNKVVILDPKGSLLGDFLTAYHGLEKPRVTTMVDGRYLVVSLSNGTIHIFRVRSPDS
UniProt Q9BV73: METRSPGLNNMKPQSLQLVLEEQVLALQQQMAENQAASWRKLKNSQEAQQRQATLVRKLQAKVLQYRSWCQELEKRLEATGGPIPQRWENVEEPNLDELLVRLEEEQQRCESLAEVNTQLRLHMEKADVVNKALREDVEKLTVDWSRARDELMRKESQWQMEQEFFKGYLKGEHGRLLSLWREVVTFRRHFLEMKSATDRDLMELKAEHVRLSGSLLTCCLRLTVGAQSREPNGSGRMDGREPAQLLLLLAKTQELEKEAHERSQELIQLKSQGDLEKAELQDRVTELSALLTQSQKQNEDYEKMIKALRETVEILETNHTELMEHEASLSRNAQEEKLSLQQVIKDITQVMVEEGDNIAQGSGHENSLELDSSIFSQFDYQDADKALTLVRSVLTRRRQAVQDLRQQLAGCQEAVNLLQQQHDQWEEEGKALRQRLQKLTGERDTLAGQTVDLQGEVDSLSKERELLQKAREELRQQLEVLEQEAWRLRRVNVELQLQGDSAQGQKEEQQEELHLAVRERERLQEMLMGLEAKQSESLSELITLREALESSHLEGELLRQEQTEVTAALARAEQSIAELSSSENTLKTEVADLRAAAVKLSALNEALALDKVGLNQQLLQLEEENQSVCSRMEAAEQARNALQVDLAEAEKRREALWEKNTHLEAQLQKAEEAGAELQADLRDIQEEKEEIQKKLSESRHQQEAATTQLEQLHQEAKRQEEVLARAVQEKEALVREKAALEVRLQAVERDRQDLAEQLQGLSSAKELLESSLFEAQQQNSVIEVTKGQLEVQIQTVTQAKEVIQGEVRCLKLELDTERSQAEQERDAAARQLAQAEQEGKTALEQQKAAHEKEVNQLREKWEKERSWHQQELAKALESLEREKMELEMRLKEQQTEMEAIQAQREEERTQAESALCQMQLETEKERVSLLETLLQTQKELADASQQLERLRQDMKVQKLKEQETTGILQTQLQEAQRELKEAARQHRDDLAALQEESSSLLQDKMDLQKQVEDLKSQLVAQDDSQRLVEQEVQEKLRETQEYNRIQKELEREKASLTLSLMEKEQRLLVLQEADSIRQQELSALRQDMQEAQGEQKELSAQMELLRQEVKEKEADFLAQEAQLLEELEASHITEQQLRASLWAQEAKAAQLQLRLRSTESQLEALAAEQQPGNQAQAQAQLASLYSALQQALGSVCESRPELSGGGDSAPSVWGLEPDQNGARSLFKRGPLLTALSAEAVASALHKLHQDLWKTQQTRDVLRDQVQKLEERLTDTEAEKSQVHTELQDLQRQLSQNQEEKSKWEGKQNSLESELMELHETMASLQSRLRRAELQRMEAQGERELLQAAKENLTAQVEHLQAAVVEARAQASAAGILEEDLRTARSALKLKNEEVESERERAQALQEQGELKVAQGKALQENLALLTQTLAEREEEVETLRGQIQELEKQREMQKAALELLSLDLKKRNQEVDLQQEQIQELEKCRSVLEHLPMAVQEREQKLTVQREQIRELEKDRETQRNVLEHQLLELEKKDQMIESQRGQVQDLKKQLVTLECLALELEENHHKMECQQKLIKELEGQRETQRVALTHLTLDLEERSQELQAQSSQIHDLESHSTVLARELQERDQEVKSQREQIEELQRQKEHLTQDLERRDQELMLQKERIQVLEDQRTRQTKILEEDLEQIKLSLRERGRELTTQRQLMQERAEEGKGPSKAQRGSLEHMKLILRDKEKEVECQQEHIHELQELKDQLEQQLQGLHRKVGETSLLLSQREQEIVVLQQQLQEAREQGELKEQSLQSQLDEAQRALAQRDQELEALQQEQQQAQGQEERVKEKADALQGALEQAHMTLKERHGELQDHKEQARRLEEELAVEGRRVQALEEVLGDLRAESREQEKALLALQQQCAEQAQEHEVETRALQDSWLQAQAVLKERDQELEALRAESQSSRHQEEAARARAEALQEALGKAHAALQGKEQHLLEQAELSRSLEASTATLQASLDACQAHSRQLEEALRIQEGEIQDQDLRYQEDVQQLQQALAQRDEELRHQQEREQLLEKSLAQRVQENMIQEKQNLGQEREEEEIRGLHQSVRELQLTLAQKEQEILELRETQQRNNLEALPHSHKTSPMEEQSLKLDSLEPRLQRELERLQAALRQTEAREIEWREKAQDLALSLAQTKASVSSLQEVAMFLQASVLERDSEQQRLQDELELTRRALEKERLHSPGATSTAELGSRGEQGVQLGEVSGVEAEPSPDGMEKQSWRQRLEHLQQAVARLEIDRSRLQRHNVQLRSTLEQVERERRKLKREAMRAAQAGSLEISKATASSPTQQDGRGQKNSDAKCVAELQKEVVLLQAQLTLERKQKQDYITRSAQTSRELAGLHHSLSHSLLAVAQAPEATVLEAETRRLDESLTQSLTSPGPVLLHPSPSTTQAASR
UniProt Q99661: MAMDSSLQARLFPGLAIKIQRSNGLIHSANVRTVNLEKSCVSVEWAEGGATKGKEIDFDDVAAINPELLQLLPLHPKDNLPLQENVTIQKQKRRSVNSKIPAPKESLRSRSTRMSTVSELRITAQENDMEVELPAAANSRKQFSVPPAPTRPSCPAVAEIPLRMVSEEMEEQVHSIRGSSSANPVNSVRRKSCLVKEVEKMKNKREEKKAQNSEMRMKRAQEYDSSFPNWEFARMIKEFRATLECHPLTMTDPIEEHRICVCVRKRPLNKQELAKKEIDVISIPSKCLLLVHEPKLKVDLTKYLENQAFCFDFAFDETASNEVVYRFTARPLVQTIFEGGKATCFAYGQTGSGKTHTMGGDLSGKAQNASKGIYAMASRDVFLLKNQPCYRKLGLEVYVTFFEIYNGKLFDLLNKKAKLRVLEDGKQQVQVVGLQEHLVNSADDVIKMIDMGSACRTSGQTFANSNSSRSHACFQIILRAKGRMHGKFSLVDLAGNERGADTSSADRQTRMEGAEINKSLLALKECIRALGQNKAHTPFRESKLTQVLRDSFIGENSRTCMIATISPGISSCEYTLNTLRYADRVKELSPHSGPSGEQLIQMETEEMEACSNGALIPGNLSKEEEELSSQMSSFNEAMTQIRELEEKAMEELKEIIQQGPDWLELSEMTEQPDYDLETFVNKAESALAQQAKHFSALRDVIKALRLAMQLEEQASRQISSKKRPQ

MIPEP (UniProt Q99797)
NP40-soluble protein abundance (concentration: 0.1mM): 1.01 ± 0.021
NP40-soluble protein abundance (concentration: 0.5mM): 1.02 ± 0.03
NP40-soluble protein abundance (concentration: 1mM): 0.928 ± 0.018
NP40-soluble protein abundance (concentration: 2mM): 0.911 ± 0.029
NP40-soluble protein abundance (concentration: 4mM): 0.912 ± 0.011
NP40-soluble protein abundance (concentration: 6mM): 0.903 ± 0.043
NP40-soluble protein abundance (concentration: 8mM): 0.868 ± 0.03
NP40-soluble protein abundance (concentration: 10mM): 0.881 ± 0.049

UniProt Q9BY12-2
NP40-soluble protein abundance (concentration: 0.1mM): 1.16 ± 0.15
NP40-soluble protein abundance (concentration: 0.5mM): 1.12 ± 0.22
NP40-soluble protein abundance (concentration: 1mM): 1.14 ± 0.11
NP40-soluble protein abundance (concentration: 2mM): 1.1 ± 0.12
NP40-soluble protein abundance (concentration: 4mM): 1.04 ± 0.22
NP40-soluble protein abundance (concentration: 6mM): 1.07 ± 0.2
NP40-soluble protein abundance (concentration: 8mM): 1.2 ± 0.19
NP40-soluble protein abundance (concentration: 10mM): 1.08 ± 0.14

TRIM56 (UniProt Q9BRZ2)
NP40-soluble protein abundance (concentration: 0.1mM): 0.984 ± 0.064
NP40-soluble protein abundance (concentration: 0.5mM): 0.984 ± 0.086
NP40-soluble protein abundance (concentration: 1mM): 0.984 ± 0.027
NP40-soluble protein abundance (concentration: 2mM): 0.995 ± 0.078
NP40-soluble protein abundance (concentration: 4mM): 0.976 ± 0.15
NP40-soluble protein abundance (concentration: 6mM): 1.02 ± 0.1
NP40-soluble protein abundance (concentration: 8mM): 1.06 ± 0.066
NP40-soluble protein abundance (concentration: 10mM): 1.03 ± 0.11

UniProt Q9BV73 and related entries
NP40-soluble protein abundance (concentration: 0.1mM): 1.09 ± 0.063
NP40-soluble protein abundance (concentration: 0.5mM): 1.04 ± 0.08
NP40-soluble protein abundance (concentration: 1mM): 1.09 ± 0.07
NP40-soluble protein abundance (concentration: 2mM): 1.13 ± 0.074
NP40-soluble protein abundance (concentration: 4mM): 1.12 ± 0.036
NP40-soluble protein abundance (concentration: 6mM): 1.06 ± 0.029
NP40-soluble protein abundance (concentration: 8mM): 1.08 ± 0.061
NP40-soluble protein abundance (concentration: 10mM): 1.16 ± 0.021

KIF2C (UniProt Q99661)
NP40-soluble protein abundance (concentration: 0.1mM): 0.995 ± 0.016
NP40-soluble protein abundance (concentration: 0.5mM): 0.9951 ± 0.0088
NP40-soluble protein abundance (concentration: 1mM): 0.958 ± 0.028
NP40-soluble protein abundance (concentration: 2mM): 0.973 ± 0.029
NP40-soluble protein abundance (concentration: 4mM): 0.976 ± 0.017
NP40-soluble protein abundance (concentration: 6mM): 0.963 ± 0.013
NP40-soluble protein abundance (concentration: 8mM): 0.985 ± 0.017
NP40-soluble protein abundance (concentration: 10mM): 0.966 ± 0.042
